Assay results as given in the supplement of paper PMC4604168 (melanoma cell lines).
The other results are listed elsewhere or left out. Single values are uncertain, as repeats are few or missing.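 The apoptosis fraction was the count of cleaved-PARP antibody-stained nuclei relative to all DNA-stained nuclei, imaged in 1,536-well plates. Screening doses were set so most cells survived, and baseline and induced cleaved-PARP levels vary greatly across cell lines.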

Legend:
Assay in all cases: cleaved PARP positive nuclei fraction relative to DMSO control; melanoma cells; higher = more apoptosis
Conditions in all cases: library dose: low library concentration; 72 h
[1] = system: MZ2-MEL
[2] = system: MeWo
[3] = system: RPMI7951
[4] = system: RVH-421
[5] = system: SkMel28
[6] = system: SkMel2
[7] = system: SkMel30
[8] = system: UACC62
[9] = system: WM115
[10] = system: WM1716
[11] = system: WM1745
[12] = system: WM3526
[13] = system: WM3619
[14] = system: WM451Lu

Compound | cleaved PARP positive nuclei fraction [1] | cleaved PARP positive nuclei fraction [2] | cleaved PARP positive nuclei fraction [3] | cleaved PARP positive nuclei fraction [4] | cleaved PARP positive nuclei fraction [5] | cleaved PARP positive nuclei fraction [6] | cleaved PARP positive nuclei fraction [7] | cleaved PARP positive nuclei fraction [8] | cleaved PARP positive nuclei fraction [9] | cleaved PARP positive nuclei fraction [10] | cleaved PARP positive nuclei fraction [11] | cleaved PARP positive nuclei fraction [12] | cleaved PARP positive nuclei fraction [13] | cleaved PARP positive nuclei fraction [14]
O=C(O)[C@@H]1[O][Sb](=[O])([O][Sb]2(=[O])[O][C@H]([C@H](O)CO)[C@H](O)[C@H](C(=O)O)[O]2)[O][C@H]([C@H](O)CO)[C@@H]1O (some centres not stated) [stibogluconate] + O=C(O)c1ccc2c(c1)nc(Nc1cccc(Cl)c1)c1ccncc12 [CX4945] (first compound 2 µM, partner dose 0.4 µM) | 113% | 74.3% | 69.4% | 47.3% | 138% | 118% | 98.8% | 48.4% | 135% | 36.4% | 118% | 553% | 109% | 91.1%
C[C@@H](Oc1cc(-c2cnn(C3CCNCC3)c2)cnc1N)c1c(Cl)ccc(F)c1Cl [Crizotinib] + Nc1ccn([C@@H]2O[C@H](CO)[C@@H](O)C2(F)F)c(=O)n1 [gemcitabine] (first compound 0.2 µM, partner dose 0.0004 µM) | 114% | 32.4% | 135% | 89.5% | 69.9% | 67.4% | 47.3% | 168% | 97.7% | 131% | 98.8% | 34.9% | 107% | 108%
O=C(O)c1ccc2c(c1)nc(Nc1cccc(Cl)c1)c1ccncc12 + Cn1c(Nc2ccc(C(F)(F)F)cc2)nc2cc(Oc3ccnc(-c4ncc(C(F)(F)F)[nH]4)c3)ccc21 [CHIR265] (first compound 0.4 µM, partner dose 0.08 µM) | 116% | 432% | 73.5% | 393% | 106% | 242% | 968% | 101% | 1120% | 647% | 152% | 149% | 131% | 218%
CNC(=O)c1cc(Oc2ccc(NC(=O)Nc3ccc(Cl)c(C(F)(F)F)c3)cc2)ccn1 [sorafenib] + O=C(O)c1ccc2c(c1)nc(Nc1cccc(Cl)c1)c1ccncc12 [CX4945] (first compound 0.4 µM, partner dose 0.4 µM) | 53.7% | 79.2% | 92.6% | 162% | 117% | 56.8% | 102% | 134% | 138% | 70% | 166% | 88.5% | 81.9% | 87.3%
Cc1cc(Nc2cc(N3CCN(C)CC3)nc(/C=C/c3ccccc3)n2)n[nH]1 + CN1CCN(c2ccc3nc(-c4c(N)c5c(F)cccc5[nH]c4=O)[nH]c3c2)CC1 [Dovitinib] (first compound 0.04 µM, partner dose 0.1 µM) | 47.6% | 109% | 101% | 232% | 81.6% | 49.5% | 150% | 79.6% | 99.1% | 93.5% | 104% | 53.1% | 85.1% | 148%
O=C(O)[C@@H]1[O][Sb](=[O])([O][Sb]2(=[O])[O][C@H]([C@H](O)CO)[C@H](O)[C@H](C(=O)O)[O]2)[O][C@H]([C@H](O)CO)[C@@H]1O (some centres not stated) [stibogluconate] + C=CCNC1=C2C[C@@H](C)C[C@H](OC)[C@H](O)[C@@H](C)/C=C(\C)[C@H](OC(N)=O)[C@@H](OC)/C=C\C=C(/C)C(=O)NC(=CC1=O)C2=O [Tanespimycin] (first compound 2 µM, partner dose 0.002 µM) | 57.1% | 116% | 49.8% | 49.4% | 77.1% | 78.7% | 64.6% | 70.7% | 127% | 29% | 84.6% | 166% | 71.2% | 105%
CS(=O)(=O)CCNCc1ccc(-c2ccc3ncnc(Nc4ccc(OCc5cccc(F)c5)c(Cl)c4)c3c2)o1 [lapatinib] + Cc1nc(Nc2ncc(C(=O)Nc3c(C)cccc3Cl)s2)cc(N2CCN(CCO)CC2)n1 [dasatanib] (first compound 0.8 µM, partner dose 0.004 µM) | 156% | 112% | 81.2% | 266% | 90.5% | 69.2% | 66.2% | 148% | 131% | 34.1% | 139% | 38.3% | 111% | 25.6%
O=C(O)c1ccc2c(c1)nc(Nc1cccc(Cl)c1)c1ccncc12 + Nc1nc(F)nc2c1ncn2[C@@H]1O[C@H](CO)[C@@H](O)[C@@H]1O [fludarabine] (first compound 0.4 µM, partner dose 0.2 µM) | 152% | 641% | 129% | 104% | 119% | 260% | 2050% | 81.9% | 164% | 250% | 88.8% | 303% | 78.3% | 118%
Cc1cc(Nc2cc(N3CCN(C)CC3)nc(/C=C/c3ccccc3)n2)n[nH]1 + COCC[n+]1c2c(n(Cc3cnccn3)c1C)C(=O)c1ccccc1C2=O [YM155] (first compound 0.04 µM, partner dose 0.0004 µM) | 268% | 206% | 30.9% | 116% | 140% | 72.1% | 76.6% | 179% | 127% | 77% | 107% | 82.9% | 85.6% | 27.3%
CC(C)C[C@H](NC(=O)[C@H](Cc1ccccc1)NC(=O)c1cnccn1)B(O)O [Bortezomib] + C=CCNC1=C2C[C@@H](C)C[C@H](OC)[C@H](O)[C@@H](C)/C=C(\C)[C@H](OC(N)=O)[C@@H](OC)/C=C\C=C(/C)C(=O)NC(=CC1=O)C2=O [Tanespimycin] (first compound 0.001 µM, partner dose 0.002 µM) | 142% | 61.9% | 116% | 153% | 76.5% | 72.6% | 157% | 42.4% | 70.8% | 125% | 169% | 55.8% | 476% | 80.8%
O=C(O)c1ccc2c(c1)nc(Nc1cccc(Cl)c1)c1ccncc12 + Nc1ncn([C@H]2C[C@H](O)[C@@H](CO)O2)c(=O)n1 [decitabine] (first compound 0.4 µM, partner dose 0.1 µM) | 104% | 47.6% | 95.8% | 76.6% | 248% | 54.3% | 69.6% | 75.3% | 325% | 190% | 96.6% | 196% | 122% | 98.7%
CS(=O)(=O)CCNCc1ccc(-c2ccc3ncnc(Nc4ccc(OCc5cccc(F)c5)c(Cl)c4)c3c2)o1 [lapatinib] + CC(=O)c1c(C)c2cnc(Nc3ccc(N4CCNCC4)cn3)nc2n(C2CCCC2)c1=O [palbociclib] (first compound 0.8 µM, partner dose 0.04 µM) | 44.1% | 61.8% | 124% | 88.6% | 216% | 108% | 134% | 73.1% | 76.8% | 91.8% | 124% | 73.4% | 271% | 50.9%
C=C(c1ccc(C(=O)O)cc1)c1cc2c(cc1C)C(C)(C)CCC2(C)C [Bexarotene] + CC(=O)c1c(C)c2cnc(Nc3ccc(N4CCNCC4)cn3)nc2n(C2CCCC2)c1=O [palbociclib] (first compound 2 µM, partner dose 0.04 µM) | 130% | 23% | 63.6% | 129% | 85.8% | 99.3% | 176% | 45.7% | 88.4% | 184% | 121% | 141% | 109% | 98.8%
CN1CCN(c2ccc3nc(-c4c(N)c5c(F)cccc5[nH]c4=O)[nH]c3c2)CC1 [Dovitinib] + Cn1c(Nc2ccc(C(F)(F)F)cc2)nc2cc(Oc3ccnc(-c4ncc(C(F)(F)F)[nH]4)c3)ccc21 [CHIR265] (first compound 0.1 µM, partner dose 0.08 µM) | 319% | 125% | 103% | 451% | 91.2% | 70.5% | 121% | 165% | 441% | 128% | 155% | 84.4% | 92.3% | 54%
C[C@@H](Oc1cc(-c2cnn(C3CCNCC3)c2)cnc1N)c1c(Cl)ccc(F)c1Cl [Crizotinib] + Nc1cccc2c1CN(C1CCC(=O)NC1=O)C2=O [lenalidomide] (first compound 0.2 µM, partner dose 1 µM) | 116% | 136% | 92.4% | 101% | 175% | 73% | 30.4% | 82.9% | 68.9% | 108% | 89.5% | 51.4% | 87.8% | 134%
Nc1nc(F)nc2c1ncn2[C@@H]1O[C@H](CO)[C@@H](O)[C@@H]1O [fludarabine] + Clc1ccc(Nc2nnc(Cc3ccncc3)c3ccccc23)cc1 [vatalanib] (first compound 0.2 µM, partner dose 2 µM) | 93.5% | 833% | 96.3% | 71.6% | 246% | 617% | 4840% | 64.6% | 124% | 14.1% | 101% | 620% | 103% | 520%
Cn1c(=O)n(-c2ccc(C(C)(C)C#N)cc2)c2c3cc(-c4cnc5ccccc5c4)ccc3ncc21 + CCCS(=O)(=O)Nc1ccc(F)c(C(=O)c2c[nH]c3ncc(Cl)cc23)c1F [PLX4720] (first compound 0.004 µM, partner dose 0.08 µM) | 42.6% | 53.3% | 60.8% | 63.7% | 80% | 32.7% | 69.1% | 151% | 101% | 12.7% | 78% | 118% | 114% | 175%
Nc1ccn([C@@H]2O[C@H](CO)[C@@H](O)C2(F)F)c(=O)n1 [gemcitabine] + Nc1ncn([C@H]2C[C@H](O)[C@@H](CO)O2)c(=O)n1 [decitabine] (first compound 0.0004 µM, partner dose 0.1 µM) | 61.3% | 126% | 72.2% | 83.3% | 121% | 117% | 115% | 183% | 69.3% | 37% | 118% | 182% | 147% | 94.4%

2 successive entries out of the list so far, quoted:
Compound | cleaved PARP positive nuclei fraction [1] | cleaved PARP positive nuclei fraction [2] | cleaved PARP positive nuclei fraction [3] | cleaved PARP positive nuclei fraction [4] | cleaved PARP positive nuclei fraction [5] | cleaved PARP positive nuclei fraction [6] | cleaved PARP positive nuclei fraction [7] | cleaved PARP positive nuclei fraction [8] | cleaved PARP positive nuclei fraction [9] | cleaved PARP positive nuclei fraction [10] | cleaved PARP positive nuclei fraction [11] | cleaved PARP positive nuclei fraction [12] | cleaved PARP positive nuclei fraction [13] | cleaved PARP positive nuclei fraction [14]
O=C(O)c1ccc2c(c1)nc(Nc1cccc(Cl)c1)c1ccncc12 + Nc1nc(F)nc2c1ncn2[C@@H]1O[C@H](CO)[C@@H](O)[C@@H]1O [fludarabine] (first compound 0.4 µM, partner dose 0.2 µM) | 152% | 641% | 129% | 104% | 119% | 260% | 2050% | 81.9% | 164% | 250% | 88.8% | 303% | 78.3% | 118%
Cc1cc(Nc2cc(N3CCN(C)CC3)nc(/C=C/c3ccccc3)n2)n[nH]1 + COCC[n+]1c2c(n(Cc3cnccn3)c1C)C(=O)c1ccccc1C2=O [YM155] (first compound 0.04 µM, partner dose 0.0004 µM) | 268% | 206% | 30.9% | 116% | 140% | 72.1% | 76.6% | 179% | 127% | 77% | 107% | 82.9% | 85.6% | 27.3%
